Where a name gives a salt, the structure may show the parent alone.

The values that follow come from patent US20080280765A1, “Method of Promoting Enlargement Growth of Agricultural and Horticultural Crops” (priority 2006, published 2008).

In this data set the test system is grape (species: "Italia"). Description: Fruit enlargement test, grape, dipping treatment of bunches. The format is in vivo. Particulars: for Sugar level: hand-held refracto-sugar meter. Here is the method:
Using grape (species: “Italia”) as a subject, a fruit enlargement test was done following the experimental summary described below. The test was carried out with 7 replication. Fifteen days after the full bloom, grape bunches were dipped in a chemical solution diluted to a predetermined concentration. The treated grape bunches were dried in air and grown as they were, until the bunches were harvested 43 days after the treatment to examine the bunch weight and the total number of grape berries. Five berries were randomly selected from each grape bunch of 5 replication among the test lots, for measuring the sugar level with a hand-held refracto-sugar meter manufactured by ATAGO CO., LTD (Type number: Nl). Additionally, a drug substance of gibberellin in powder (98% purity) was used as the gibberellin, while as the prohexadione calcium salt, a 27.5% formulation (the trade name: Viviful) was used, and as the trinexapac ethyl, a 25% formulation thereof (the trade name: Moddus) was used.
Material: Grape bunch “Italia” Fully bloomed on Sep. 21, 2006; starting the treatments on Oct. 6, 2006; harvested on Dec. 18, 2006: 7 bunches per one treatment lot.
C: Cont (control lot) G: dipping treatment in gibberellin (24.5 ppm) PCA: dipping treatment in prohexadione calcium salt (20 ppm, 100 ppm) GPCA: dipping treatment in gibberellin and prohexadione calcium salt (24.5 and 20 ppm, respectively or 24.5 ppm and 100 ppm, respectively) TR: dipping treatment in trinexapac ethyl (20 ppm, 100 ppm) G+TR: dipping treatment in gibberellin and trinexapac ethyl (24.5 ppm and 20 ppm, respectively or 24.5 ppm and 100 ppm, respectively).
Herein, statistical analysis was done by the Tukey's HSD test (p=0.05). Significant difference is observed between different alphabets.

As to `CCOC(=O)C1CC(=O)C(=C(O)C2CC2)C(=O)C1` (centres unmarked) [TR, trinexapac ethyl], for the setting “20 ppm”, the “Mean berry number/bunch (in number)” value is given as 62.1 and the Sugar level is listed as 11.0%. Moreover, for the setting “100 ppm”, the “Mean berry number/bunch (in number)” value was determined as 71.4 and the Sugar level is 10.6%.

With `CCC(=O)C1=C(O)CC(C(=O)O)CC1=O` (centres unmarked) [PCA, prohexadione calcium salt], where the note is “20 ppm”, the “Mean berry number/bunch (in number)” value amounted to 64.0 and the Sugar level came out at 10.8%. In addition, under “100 ppm”, the “Mean berry number/bunch (in number)” value came to 61.1 and the Sugar level turned out to be 11.2%.
